These are literature values, as cited in publication PMC9538324 (Journal of medical virology, 2022).

SMILES strings stand for the structures.

The subject of the data set is SARS-CoV-2. To be noted: Vero E6 cells, RNA readout, depending upon the MOI used; cited from earlier work.

What is called EC50 is the concentration giving half of the maximal effect. For the molecule `Cc1ccc(NC(=O)c2ccc(CN3CCN(C)CC3)cc2)cc1Nc1nccc(-c2cccnc2)n1` [Imatinib, imatinib], the EC50 was 3 to 10 µM.
